# Some of the results follow. The main result of the screen is listed elsewhere. These columns were measured beside it and carry no call. The list favours compounds with an active or inconclusive main result. Potencies come from curve fits of mixed quality, noted in brackets.
# Assay: qHTS Assay for Lipid Storage Modulators in Drosophila S3 Cells;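 on cell number change: cells counted by Cell Tracker Red CMTPX staining in the red channel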
# Conditions: BODIPY lipid droplet fluorescence, 18-24 h; for cell number change: measured here: cell count max response, cells fed with added oleic acid
# Method in brief: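 Laser-scanning cytometry quantifies lipid droplet accumulation (500–530 nm total intensity; droplet/cell object ratio) in oleic acid-fed (400 uM added) Drosophila S3 cells treated with a concentration series. 20 uM Triacsin C defined 100% inhibition.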
# [1] = measured here: lipid fluorescence (Fed channel) AC50, cells fed with added oleic acid
# [2] = measured here: cell number channel AC50, cells fed with added oleic acid
structure (smiles),measurement,setting,value
O=C(c1ccc(N2CCN(C(=O)c3ccc(F)cc3F)CC2)cc1)c1cccc(F)c1,cell number change,,-15%
same,AC50,[1],"29.1 µM [falling, single point]"
CSc1ccccc1NC(=O)c1cc2ncc(Br)cn2n1,cell number change,,15.9%
same,AC50,[1],"1.12 µM [rising, single point]"
CCOC(=O)Cc1c(C)nc(-c2ccccc2)[nH]c1=O,cell number change,,4.59%
same,AC50,[2],"1.3 µM [falling, partial curve]"
COc1ccc(CN(C)C(=O)c2ccc(NC(=O)CC3SC(N4CCCC4)=NC3=O)cc2)c(OC)c1 (configuration not stated),cell number change,,22.5%
CC(=O)Nc1ccc(NC(=O)CCn2c(=S)oc3ccccc32)cc1,AC50,[2],"3.26 µM [rising, partial curve]"
COc1ccc(/C=C2\C(=O)NCC(=O)N2Cc2ccccc2)cc1,cell number change,,-49%
same,AC50,[2],"16.4 µM [falling, partial curve]"
Cc1nnc(NC(=O)CSc2nc(N)c(NC(=O)c3cccs3)c(=O)[nH]2)s1,cell number change,,-0.815%
same,AC50,[1],"0.13 µM [falling, full curve, poor fit]"
O=C(c1cncc(Br)c1)N1CCc2ccccc2C1,cell number change,,64.1%
same,AC50,[2],"11.6 µM [rising, partial curve]"
same,AC50,[1],"13 µM [rising, partial curve]"
CCc1ccccc1N(C)S(=O)(=O)c1ccc(-c2cc(C)no2)s1,cell number change,,-5.9%
same,AC50,[1],"29.1 µM [falling, single point]"
CCS(=O)(=O)N1CCC(C(=O)NCc2ccc(F)cc2Cl)CC1,cell number change,,-8.77%
same,AC50,[1],"0.103 µM [falling, partial curve, poor fit]"
CCc1nc(C#N)c(N2CCOCC2)o1,cell number change,,-7.54%
Cc1ccc(NC(=O)Cn2nnc(-c3ccccc3NC(=O)c3cccs3)n2)cc1,cell number change,,-3.24%
same,AC50,[1],"0.461 µM [rising, partial curve, poor fit]"
Cc1ccccc1NC(=O)CSc1nnc(-c2ccccn2)o1,cell number change,,9.4%
same,AC50,[1],"3.26 µM [falling, full curve]"
Cc1ccccc1CNC(=O)Cn1cnc(S(=O)(=O)N2CCCC2)c1,cell number change,,-17.4%
same,AC50,[1],"0.259 µM [falling, partial curve, poor fit]"
CCc1ccc(C(=O)CN2C(=O)NC3(CCc4ccccc43)C2=O)cc1 (configuration not stated),cell number change,,-2.63%
same,AC50,[1],"0.103 µM [rising, full curve, poor fit]"
O=C(CSCc1ccccc1)Nc1ccc(F)c(F)c1,cell number change,,-29.6%
same,AC50,[1],"14.6 µM [falling, single point]"
O=C(CN1CCN(C(=O)c2ccco2)CC1)Nc1ccc2c(c1)OCCO2,cell number change,,20.4%
same,AC50,[1],"16.4 µM [rising, single point]"
C1CCC(c2nn3c(-c4n[nH]c5c4CCC5)nnc3s2)CC1,cell number change,,-32.7%
same,AC50,[2],"1.3 µM [falling, full curve, poor fit]"
O=c1cc2[nH]c3ccccc3c(=O)n2nc1-c1ccccc1,cell number change,,7.22%
same,AC50,[1],"0.291 µM [falling, partial curve, poor fit]"
CCOCC(O)CS(=O)Cc1ccccc1 (configuration not stated),cell number change,,0.828%
same,AC50,[1],"0.0731 µM [falling, full curve, poor fit]"
Cc1cccc(C)c1NC(=O)CN(C)C(C)C(=O)Nc1ccccc1-c1ccccc1 (configuration not stated),cell number change,,-8.06%
COc1ccc(CNC(=O)c2cc(=O)c3cc(C)ccc3o2)cc1,cell number change,,-44.2%
same,AC50,[2],"29.1 µM [falling, single point]"
same,AC50,[1],"32.6 µM [falling, single point]"
COc1ccc(CNc2nc(C)cc(C)c2C#N)cc1,cell number change,,12%
same,AC50,[1],"29.1 µM [rising, single point]"
Cn1c(=NC(=O)C2CC2)sc2cc(F)cc(F)c21,cell number change,,-6.57%
O=c1oc2ccccc2cc1-c1csc(Cc2nc(-c3ccc(Br)cc3)cs2)n1,AC50,[2],"0.411 µM [rising, partial curve, poor fit]"
same,AC50,[1],"0.411 µM [rising, partial curve, poor fit]"
CCCc1[nH]n(-c2ccc([N+](=O)[O-])cc2)c(=O)c1C=NCCc1ccc(OC)c(OC)c1,cell number change,,16.5%
same,AC50,[1],"20.6 µM [rising, single point]"
Cc1ccc2oc(=O)c3cc(C(=O)NCCCN4CCCC(C)C4)sc3c2c1 (configuration not stated),cell number change,,22.4%
same,AC50,[1],"29.1 µM [rising, partial curve]"
O=C(Nc1cccc(F)c1)c1ccc(S(=O)(=O)N2CCCCC2)cc1,cell number change,,48.4%
same,AC50,[2],"20 µM [rising, partial curve, poor fit]"
same,AC50,[1],"7.94 µM [falling, partial curve, poor fit]"
CCC(C)[C@H]1CNCCN1CCC12CC3CC(CC(C3)C1)C2 (some centres not stated),cell number change,,-7.01%
same,AC50,[1],"3.66 µM [rising, single point]"
CCOC(=O)c1sc(NC(=O)c2ccco2)c(C#N)c1C,cell number change,,-1.1%
same,AC50,[1],"18.4 µM [rising, single point]"
CCC(=O)c1ccc(CCCCCC(=O)O)s1,cell number change,,-16.1%
same,AC50,[1],"2.91 µM [falling, partial curve, poor fit]"
COc1ccccc1NC(=S)NC(=O)CCCOc1ccc(Cl)cc1Cl,cell number change,,-3.93%
Fc1ccc(-c2cc(C(F)(F)F)nc(NCC3CCCO3)n2)cc1 (configuration not stated),cell number change,,-42.5%
same,AC50,[2],"18.4 µM [falling, partial curve, poor fit]"
COc1ccc(COC(=O)c2cc(S(=O)(=O)N3CCCCC3)ccc2N2CCOCC2)cc1,cell number change,,-3.59%
same,AC50,[1],"3.26 µM [rising, partial curve]"
Cc1ccc(-n2c(C)cc(C(=O)CN3CCOCC3)c2C)cc1,AC50,[1],"6.51 µM [rising, single point]"
O=C(CSc1nnnn1-c1ccccc1Cl)Nc1ccc2c(c1)OCCO2,cell number change,,25.3%
O=S(=O)(Nc1cccc(-c2cn3c(n2)SCC3)c1)c1cccs1,cell number change,,32.4%
same,AC50,[2],"0.411 µM [rising, full curve]"
CCCOC(=O)Nc1ccc(C(N)=O)cc1,cell number change,,-0.41%
same,AC50,[2],"0.231 µM [falling, full curve]"
NC(=O)C1CCCN(C(=S)NCc2ccc3c(c2)OCO3)C1 (configuration not stated),cell number change,,10.8%
same,AC50,[2],"0.731 µM [falling, single point]"
O=C1CCCc2nc(NCc3ccco3)ncc21,cell number change,,-0.434%
Cn1c(=O)c2cc(NC(=O)c3ccccc3Cl)c(=O)oc2n(C)c1=O,cell number change,,-6.25%
Cc1oc2c(O)c(O)ccc2c(=O)c1-c1cnn(-c2ccccc2)c1,cell number change,,-26.2%
same,AC50,[2],"0.517 µM [falling, full curve, poor fit]"
CN(C)CCCCOc1ccc(Br)cc1Cl,cell number change,,18.6%
same,AC50,[2],"3.26 µM [falling, single point]"
O=C(NCc1ccccn1)C(=O)NCC1OCCCN1S(=O)(=O)c1ccc(F)cc1 (configuration not stated),cell number change,,16.1%
same,AC50,[2],"2.06 µM [rising, partial curve, poor fit]"
same,AC50,[1],"29.1 µM [rising, single point]"
CCOc1ccc(N(C(C)C(=O)N2CCCCCC2)S(C)(=O)=O)cc1 (configuration not stated),cell number change,,-3.67%
same,AC50,[1],"29.1 µM [falling, single point]"
O=[N+]([O-])c1cc2c(cc1CN1CCN(c3ccccc3)CC1)OCO2,cell number change,,-5.11%
same,AC50,[1],"29.1 µM [falling, single point]"
Cn1c(N)c(C(=O)COC(=O)CSc2ccc3ccccc3c2)c(=O)n(C)c1=O,cell number change,,-0.563%
same,AC50,[1],"6.51 µM [rising, single point]"
C=CCn1c(SCC(=O)c2cccs2)nc2sc(CC)cc2c1=O,cell number change,,-4.74%
O=C(Nc1sccc1C(=O)N1CCOCC1)c1cccnc1,AC50,[1],"0.58 µM [falling, single point]"
O=C(Nc1cccc(Cl)c1Cl)c1cc(S(=O)(=O)NCCc2ccccc2)ccc1F,AC50,[2],"1.64 µM [rising, partial curve, poor fit]"
same,AC50,[1],"0.092 µM [rising, partial curve]"
CCOC(=O)c1ccc(N=Nc2c(C)[nH]n(-c3ccccc3)c2=O)cc1,cell number change,,27.7%
same,AC50,[2],"0.731 µM [rising, full curve, poor fit]"
same,AC50,[1],"3.26 µM [falling, full curve]"
Cc1nn2c(NCCN3CCOCC3)c3c(nc2c1-c1ccccc1)CCCC3,cell number change,,-14%
same,AC50,[1],"16.4 µM [falling, single point]"
C/C(=N\NC(=O)CSCc1ccc([N+](=O)[O-])cc1)c1cccc(Br)c1,cell number change,,8.31%
same,AC50,[2],"6.51 µM [rising, partial curve, poor fit]"
same,AC50,[1],"1.64 µM [rising, single point]"
Cc1ccc(/C=N/NC(=O)c2cccs2)cc1[N+](=O)[O-],cell number change,,-14%
same,AC50,[1],"2.31 µM [rising, partial curve, poor fit]"
CCCSC1=N/C(=C/c2ccsc2)C(=O)N1c1ccccc1,cell number change,,20.5%
same,AC50,[2],"0.517 µM [falling, single point]"
same,AC50,[1],"1.16 µM [falling, single point]"
Cc1nonc1NC(=O)CSc1nc2ccc(Cl)cc2[nH]1,cell number change,,10.4%
same,AC50,[1],"29.1 µM [rising, partial curve]"
CCN(CC(=O)Nc1ccc(C)c(F)c1)CC(=O)NC(C)C,cell number change,,-2.98%
same,AC50,[1],"0.0058 µM [rising, full curve, poor fit]"
O=C(NCCN1CCOCC1)c1ccccc1Cl,cell number change,,17.5%
O=C(CCc1nc(-c2ccccc2F)no1)NC1CCCCCC1,cell number change,,-21.3%
same,AC50,[1],"1.46 µM [rising, partial curve]"
Cc1cccc(N=Nc2c(N)n[nH]c2-c2ccc(Cl)cc2)c1,cell number change,,-73.8%
same,AC50,[2],"20.6 µM [falling, partial curve]"
same,AC50,[1],"20.6 µM [falling, single point]"
Cc1ccccc1-n1c(SCC(=O)N/N=C/c2c(C)nn(-c3ccccc3)c2C)nc2ccccc2c1=O,AC50,[1],"0.103 µM [falling, full curve]"
CC(C)OC(=O)CSc1nnc(Cc2ccccc2)n1CC1CCCO1 (configuration not stated),cell number change,,5.95%

# A portion taken from the entries so far, for reference:
structure (smiles),measurement,setting,value
O=C(CSc1nnnn1-c1ccccc1Cl)Nc1ccc2c(c1)OCCO2,cell number change,,25.3%
O=S(=O)(Nc1cccc(-c2cn3c(n2)SCC3)c1)c1cccs1,cell number change,,32.4%
same,AC50,[2],"0.411 µM [rising, full curve]"

# Part of the list above, with bars between the fields.
structure (smiles) | measurement | setting | value
CCN(CC(=O)Nc1ccc(C)c(F)c1)CC(=O)NC(C)C | cell number change |  | -2.98%
same | AC50 | [1] | 0.0058 µM [rising, full curve, poor fit]
